For five substances, binding results are on record in paper PMC12504418.

The chains behind the UniProt entries cited, without tags or fusion partners. Residues count along the entry.
UniProt P07333, residues 20-972: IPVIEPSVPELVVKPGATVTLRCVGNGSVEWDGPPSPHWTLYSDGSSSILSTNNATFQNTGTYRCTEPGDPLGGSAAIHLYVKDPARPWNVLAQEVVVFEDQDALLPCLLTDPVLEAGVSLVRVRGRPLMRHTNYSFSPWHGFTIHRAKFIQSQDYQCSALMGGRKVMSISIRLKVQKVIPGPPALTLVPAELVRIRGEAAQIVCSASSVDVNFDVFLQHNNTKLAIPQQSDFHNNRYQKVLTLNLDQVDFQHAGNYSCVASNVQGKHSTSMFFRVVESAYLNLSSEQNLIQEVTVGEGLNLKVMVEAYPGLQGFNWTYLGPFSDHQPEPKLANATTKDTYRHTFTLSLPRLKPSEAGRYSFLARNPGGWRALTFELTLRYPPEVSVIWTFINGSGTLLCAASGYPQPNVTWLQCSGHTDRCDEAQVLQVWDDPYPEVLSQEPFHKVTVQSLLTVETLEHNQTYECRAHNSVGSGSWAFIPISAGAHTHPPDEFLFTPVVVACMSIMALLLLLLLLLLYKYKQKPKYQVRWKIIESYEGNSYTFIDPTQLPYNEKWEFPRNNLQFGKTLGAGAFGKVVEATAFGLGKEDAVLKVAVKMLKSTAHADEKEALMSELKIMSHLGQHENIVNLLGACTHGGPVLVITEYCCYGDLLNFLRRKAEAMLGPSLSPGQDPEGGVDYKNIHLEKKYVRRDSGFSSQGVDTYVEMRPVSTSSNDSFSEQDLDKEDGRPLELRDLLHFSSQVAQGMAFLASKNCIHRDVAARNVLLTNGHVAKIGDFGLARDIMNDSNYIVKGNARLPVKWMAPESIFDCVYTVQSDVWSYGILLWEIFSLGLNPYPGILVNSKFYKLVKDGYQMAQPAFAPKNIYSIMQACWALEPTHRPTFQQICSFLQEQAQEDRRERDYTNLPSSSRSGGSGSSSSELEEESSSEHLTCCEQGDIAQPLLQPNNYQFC
UniProt Q3TTA7: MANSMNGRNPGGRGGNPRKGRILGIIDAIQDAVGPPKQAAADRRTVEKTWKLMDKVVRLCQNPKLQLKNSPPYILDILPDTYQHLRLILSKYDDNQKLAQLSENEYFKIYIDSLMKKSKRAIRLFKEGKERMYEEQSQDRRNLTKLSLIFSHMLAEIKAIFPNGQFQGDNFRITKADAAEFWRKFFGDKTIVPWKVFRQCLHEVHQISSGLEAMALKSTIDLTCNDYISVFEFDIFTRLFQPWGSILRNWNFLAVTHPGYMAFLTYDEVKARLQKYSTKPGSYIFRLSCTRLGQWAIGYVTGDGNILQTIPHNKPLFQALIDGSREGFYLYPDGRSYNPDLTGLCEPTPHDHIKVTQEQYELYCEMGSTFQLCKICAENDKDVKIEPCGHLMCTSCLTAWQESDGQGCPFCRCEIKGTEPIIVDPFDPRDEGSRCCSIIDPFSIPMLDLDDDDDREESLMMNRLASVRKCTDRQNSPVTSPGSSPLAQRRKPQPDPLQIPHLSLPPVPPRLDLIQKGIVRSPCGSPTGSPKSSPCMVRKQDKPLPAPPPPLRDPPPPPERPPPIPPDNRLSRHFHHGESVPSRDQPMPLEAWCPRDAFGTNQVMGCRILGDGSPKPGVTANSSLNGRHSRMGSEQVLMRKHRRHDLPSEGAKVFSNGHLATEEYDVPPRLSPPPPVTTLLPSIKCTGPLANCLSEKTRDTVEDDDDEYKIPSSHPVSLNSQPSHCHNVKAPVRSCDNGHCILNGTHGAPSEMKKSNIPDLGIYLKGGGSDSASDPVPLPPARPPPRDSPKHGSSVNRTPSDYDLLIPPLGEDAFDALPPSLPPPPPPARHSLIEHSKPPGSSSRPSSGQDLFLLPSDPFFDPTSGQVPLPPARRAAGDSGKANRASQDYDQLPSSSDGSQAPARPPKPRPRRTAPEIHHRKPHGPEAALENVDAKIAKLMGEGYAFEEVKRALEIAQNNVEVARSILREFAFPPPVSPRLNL
UniProt Q13191: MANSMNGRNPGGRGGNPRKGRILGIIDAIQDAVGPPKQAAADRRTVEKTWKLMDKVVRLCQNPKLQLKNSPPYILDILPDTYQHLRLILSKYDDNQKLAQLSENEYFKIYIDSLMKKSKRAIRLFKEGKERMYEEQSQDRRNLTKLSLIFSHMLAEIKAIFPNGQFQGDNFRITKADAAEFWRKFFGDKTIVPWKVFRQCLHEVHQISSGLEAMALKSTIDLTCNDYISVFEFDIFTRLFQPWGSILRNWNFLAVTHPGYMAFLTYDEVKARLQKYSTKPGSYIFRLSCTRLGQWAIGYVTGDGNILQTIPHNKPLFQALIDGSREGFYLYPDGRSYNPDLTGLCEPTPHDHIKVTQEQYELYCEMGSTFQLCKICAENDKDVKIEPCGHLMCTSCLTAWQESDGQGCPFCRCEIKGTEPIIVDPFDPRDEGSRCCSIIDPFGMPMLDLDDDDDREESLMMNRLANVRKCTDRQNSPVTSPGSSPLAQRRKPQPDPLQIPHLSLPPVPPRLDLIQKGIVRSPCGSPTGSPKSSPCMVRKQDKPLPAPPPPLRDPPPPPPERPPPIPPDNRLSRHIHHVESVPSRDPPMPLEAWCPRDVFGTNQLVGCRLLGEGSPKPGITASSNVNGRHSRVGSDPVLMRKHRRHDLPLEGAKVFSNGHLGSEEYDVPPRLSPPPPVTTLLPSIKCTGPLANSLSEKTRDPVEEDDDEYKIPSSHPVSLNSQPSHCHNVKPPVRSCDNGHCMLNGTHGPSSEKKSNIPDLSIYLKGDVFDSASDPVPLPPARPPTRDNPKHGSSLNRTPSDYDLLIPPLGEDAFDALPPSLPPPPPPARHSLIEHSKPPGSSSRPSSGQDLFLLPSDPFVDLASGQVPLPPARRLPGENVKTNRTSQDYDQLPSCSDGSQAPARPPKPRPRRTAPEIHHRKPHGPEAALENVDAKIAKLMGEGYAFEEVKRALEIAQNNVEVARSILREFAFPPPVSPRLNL

No constants are given. Whether binding was seen depends on the method and setting. In cells and extracts the contact can be indirect. Some results given as binding are weak or reduced against the parent protein; the word gives no strength. For some of these results: Where a sequence is shown, tags or fusion partners need not be part of it.

Assay [1] addresses T1, His-M-CSFR (macrophage colony-stimulating factor receptor) (mouse) (UniProt P09581).
T1 sequence: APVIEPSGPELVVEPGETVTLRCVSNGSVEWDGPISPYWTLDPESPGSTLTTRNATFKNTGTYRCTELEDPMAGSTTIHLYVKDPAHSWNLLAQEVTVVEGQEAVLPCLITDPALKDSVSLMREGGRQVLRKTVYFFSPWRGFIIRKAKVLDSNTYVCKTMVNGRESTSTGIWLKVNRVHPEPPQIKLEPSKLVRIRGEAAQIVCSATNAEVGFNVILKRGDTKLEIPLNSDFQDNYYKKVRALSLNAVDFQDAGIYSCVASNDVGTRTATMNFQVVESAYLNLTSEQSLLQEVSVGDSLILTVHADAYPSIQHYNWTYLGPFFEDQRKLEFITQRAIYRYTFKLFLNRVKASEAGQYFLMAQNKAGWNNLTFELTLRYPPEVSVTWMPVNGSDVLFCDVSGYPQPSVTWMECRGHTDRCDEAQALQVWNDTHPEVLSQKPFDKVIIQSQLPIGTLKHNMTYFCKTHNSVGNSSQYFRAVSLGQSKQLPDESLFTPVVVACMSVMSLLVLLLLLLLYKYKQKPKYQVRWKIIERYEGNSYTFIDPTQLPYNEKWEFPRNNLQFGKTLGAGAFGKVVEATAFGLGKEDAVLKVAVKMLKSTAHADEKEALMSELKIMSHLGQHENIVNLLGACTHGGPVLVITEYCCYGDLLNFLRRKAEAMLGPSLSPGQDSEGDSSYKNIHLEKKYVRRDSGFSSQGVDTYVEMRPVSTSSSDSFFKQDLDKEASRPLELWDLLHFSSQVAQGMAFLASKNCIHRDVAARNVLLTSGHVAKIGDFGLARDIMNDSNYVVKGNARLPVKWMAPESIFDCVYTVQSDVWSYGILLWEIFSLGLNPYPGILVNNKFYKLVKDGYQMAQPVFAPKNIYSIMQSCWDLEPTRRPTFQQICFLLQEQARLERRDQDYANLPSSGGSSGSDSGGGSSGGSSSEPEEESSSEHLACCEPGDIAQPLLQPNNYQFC
In words: co-IP; HEK293T cells co-expressing His-M-CSFR and Myc-Cbl-b or Myc-c-Cbl; NP-40 lysis buffer, antibody overnight at 4 °C, Protein G-agarose, washes with NP-40 wash buffer and High Salt buffer; western blot. A general note: A western blot detects proteins with antibodies after separation by electrophoresis.

Assay [2] has as its target endogenous M-CSFR (human) (human (endogenous in THP-1)) (UniProt P07333). The assay is described as follows: co-IP; endogenous proteins in PMA-stimulated THP-1 cells after stimulation with M-CSF; NP-40 lysis buffer, Protein G-agarose; western blot.
The target of assay [3] is T2, endogenous M-CSFR (mouse) (mouse (endogenous in MH-S and BMDMs)) (UniProt P09581).
T2 sequence: T1 sequence
In words: co-IP; endogenous proteins in MH-S cells after stimulation with M-CSF; NP-40 lysis buffer, Protein G-agarose; western blot.

Assay [4] has as its target T2, endogenous M-CSFR (mouse) (mouse (endogenous in MH-S and BMDMs)). The assay is described as follows: co-IP; endogenous proteins in WT BMDMs starved of M-CSF for 24 h and restimulated with M-CSF (50 ng/mL); NP-40 lysis buffer, Protein G-agarose; western blot.

With “Myc-Cbl-b (from UniProt Q3TTA7 1-982) (enzyme)”, in assay [1], the binding entry is “binds”.

With “Myc-c-Cbl (from UniProt P22682 1-913) (enzyme)”, in assay [1], the binding entry is reported as “binds”.

For “endogenous Cbl-b (human) (from UniProt Q13191 1-982) (enzyme)”, the binding entry in assay [2] is “binds”.

With “endogenous Cbl-b (mouse) (from UniProt Q3TTA7 1-982) (enzyme)”, the binding result in assay [3] and in assay [4] was “binds” throughout.

For the substance “endogenous c-Cbl (mouse) (from UniProt P22682 1-913) (enzyme)”, the binding entry in assay [3] and in assay [4] was “binds” throughout.
